Our source for the binding values is publication PMC11259706 (The Journal of Biological Chemistry, 2024).

Assay [1] deals with T1, cMyc-ELP1 (elongator acetyltransferase complex subunit 1) (UniProt O95163).
T1 sequence: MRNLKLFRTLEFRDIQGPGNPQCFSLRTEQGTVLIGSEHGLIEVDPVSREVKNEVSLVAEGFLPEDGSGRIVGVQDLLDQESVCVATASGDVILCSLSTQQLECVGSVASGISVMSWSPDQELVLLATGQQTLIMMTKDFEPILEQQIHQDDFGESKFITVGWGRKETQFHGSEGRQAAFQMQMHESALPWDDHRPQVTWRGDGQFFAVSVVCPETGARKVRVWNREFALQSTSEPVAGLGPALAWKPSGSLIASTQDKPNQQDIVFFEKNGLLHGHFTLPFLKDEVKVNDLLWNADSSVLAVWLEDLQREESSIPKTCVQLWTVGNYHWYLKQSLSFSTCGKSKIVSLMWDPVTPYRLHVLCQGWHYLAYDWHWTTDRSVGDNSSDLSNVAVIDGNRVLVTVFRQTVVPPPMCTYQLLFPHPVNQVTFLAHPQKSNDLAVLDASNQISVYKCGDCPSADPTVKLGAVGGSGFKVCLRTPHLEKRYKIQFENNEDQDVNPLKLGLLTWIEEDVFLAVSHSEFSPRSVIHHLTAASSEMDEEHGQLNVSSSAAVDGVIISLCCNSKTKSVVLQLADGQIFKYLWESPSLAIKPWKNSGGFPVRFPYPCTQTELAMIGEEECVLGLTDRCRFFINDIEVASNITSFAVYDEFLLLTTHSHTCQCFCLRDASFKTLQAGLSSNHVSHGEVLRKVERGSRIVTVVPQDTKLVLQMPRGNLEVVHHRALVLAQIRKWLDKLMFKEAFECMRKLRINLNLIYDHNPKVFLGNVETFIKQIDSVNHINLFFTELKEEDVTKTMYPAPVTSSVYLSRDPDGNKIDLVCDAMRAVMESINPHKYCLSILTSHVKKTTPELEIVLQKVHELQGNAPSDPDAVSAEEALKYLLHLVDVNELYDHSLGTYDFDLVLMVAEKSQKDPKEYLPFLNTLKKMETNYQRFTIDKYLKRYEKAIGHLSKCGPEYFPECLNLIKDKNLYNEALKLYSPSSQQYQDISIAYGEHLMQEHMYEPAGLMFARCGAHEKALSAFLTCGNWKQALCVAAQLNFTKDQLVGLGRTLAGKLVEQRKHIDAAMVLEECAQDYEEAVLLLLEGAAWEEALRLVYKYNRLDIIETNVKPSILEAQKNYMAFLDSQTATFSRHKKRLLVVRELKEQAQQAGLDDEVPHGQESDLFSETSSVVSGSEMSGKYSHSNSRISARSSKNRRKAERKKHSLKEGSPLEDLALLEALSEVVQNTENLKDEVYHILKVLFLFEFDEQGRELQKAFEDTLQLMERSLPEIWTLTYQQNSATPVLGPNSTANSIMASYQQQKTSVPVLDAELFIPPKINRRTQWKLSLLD
Description: co-IP; HEK293T cells transfected with cMyc-ELP1 and FLAG-PP5; lysate (25 mM Tris-HCl pH 7.4, 150 mM NaCl, 1 mM EDTA, 1% NP-40, 5% glycerol) on anti-myc magnetic resin, RT 3 h; Western blots for FLAG, Hsp90 and Hsp70. On the technique in general: A western blot detects proteins with antibodies after separation by electrophoresis.

Assay [2] has as its target T2, protein phosphatase 5 (PP5), human, full-length (human) (UniProt P53041).
T2 sequence: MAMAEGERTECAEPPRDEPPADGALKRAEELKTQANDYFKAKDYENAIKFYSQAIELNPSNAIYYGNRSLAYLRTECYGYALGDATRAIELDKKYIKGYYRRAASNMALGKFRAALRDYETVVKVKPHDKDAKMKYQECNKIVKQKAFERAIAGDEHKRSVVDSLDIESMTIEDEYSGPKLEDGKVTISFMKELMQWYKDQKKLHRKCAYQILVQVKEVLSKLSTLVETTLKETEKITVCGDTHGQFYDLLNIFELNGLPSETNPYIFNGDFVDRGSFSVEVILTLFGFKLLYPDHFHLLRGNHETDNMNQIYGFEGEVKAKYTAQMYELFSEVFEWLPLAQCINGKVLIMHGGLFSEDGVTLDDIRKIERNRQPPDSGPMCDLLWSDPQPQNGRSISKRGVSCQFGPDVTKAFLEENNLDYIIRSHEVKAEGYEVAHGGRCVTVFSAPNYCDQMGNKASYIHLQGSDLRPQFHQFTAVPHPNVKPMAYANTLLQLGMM
Description: fluorescence polarisation; saturation binding: tracer 20 nM, 3-fold dilution series of PP5; 50 mM Hepes, 75 mM NaCl, 0.001% Triton X-100, pH 7.4; room temperature, 15 min; both purified. On the technique in general: Fluorescence polarisation rises when a labelled molecule tumbles more slowly, as on binding a larger partner.

These are yes or no findings as the source states them, for the method shown. For some assays here: In cells and extracts the contact can be indirect. Some entries that bind do so weakly or less than the wild type. For some assays here: Where a sequence is shown, tags or fusion partners need not be part of it.

Consider “FLAG-PP5 (from UniProt P53041 1-499) (enzyme)”, for which, in assay [1], the binding entry was “binds”.

In the case of WKPVD (fluorescent label (tracer)) [fluorescent tracer of the DDCP C-terminal sequence WKPVD], the binding result in assay [2] is “no binding (tested: > 100 μM)”.
